In paper PMC3271191:
No constants are given. Whether binding was seen depends on the method and setting. Some entries that bind do so weakly or less than the wild type. Where a sequence is shown, tags or fusion partners need not be part of it. One block for each binder: values may come before it.

Target: T1, CEH-14 (C. elegans) (UniProt P20271)
T1 sequence: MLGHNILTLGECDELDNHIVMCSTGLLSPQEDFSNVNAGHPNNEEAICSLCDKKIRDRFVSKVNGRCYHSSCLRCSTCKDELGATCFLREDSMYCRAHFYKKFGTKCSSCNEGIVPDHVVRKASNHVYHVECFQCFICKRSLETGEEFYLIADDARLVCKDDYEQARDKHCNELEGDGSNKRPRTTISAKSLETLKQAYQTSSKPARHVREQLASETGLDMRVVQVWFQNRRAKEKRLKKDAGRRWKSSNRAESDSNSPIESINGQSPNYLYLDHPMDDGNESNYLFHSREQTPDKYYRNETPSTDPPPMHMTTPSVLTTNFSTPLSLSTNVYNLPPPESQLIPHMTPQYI
Assay: two-hybrid; direct assays: Gal4AD-TF prey plasmids transformed into the haploid Gal4DB-TF bait strain (MaV103); beta-galactosidase assay on overlay filter membranes and growth on selective plates plus 20, 40 or 60 mM 3-AT; individual yeast transformant colonies scored

binding: binds
B1: CEH-14 (protein, UniProt P20271 1-351)
chain: T1 sequence

binding: binds
B2: AD-CEH-63(whole) (protein, UniProt A3FPJ2 1-152)
chain: MTSKTNMTSNKFAYDFFPWSNDTNSSQQIKNIKPPPKRSNRPTKRTTFTSEQVTLLELEFAKNEYICKDRRGELAQTIELTECQVKTWFQNRRTKKRRCTSPLRKSMMKKSDERSPSPQNPSSQHVQNLQTFFHSWPSHFAYSLPSDQQNNV
